Values of other authors as cited in patent US20230117831A1, “MULTI-FUNCTIONAL CHIMERIC MOLECULES” (THE BROAD INSTITUTE, INC., priority 2020, published 2023).
At least one structure is not confirmed: it was looked up by name or label, or the drawing left a doubt.

Amino acid sequences for entries named in this document (tags omitted). A change or cut given only in a name is not applied to a line headed by its entry.
UniProt P48736: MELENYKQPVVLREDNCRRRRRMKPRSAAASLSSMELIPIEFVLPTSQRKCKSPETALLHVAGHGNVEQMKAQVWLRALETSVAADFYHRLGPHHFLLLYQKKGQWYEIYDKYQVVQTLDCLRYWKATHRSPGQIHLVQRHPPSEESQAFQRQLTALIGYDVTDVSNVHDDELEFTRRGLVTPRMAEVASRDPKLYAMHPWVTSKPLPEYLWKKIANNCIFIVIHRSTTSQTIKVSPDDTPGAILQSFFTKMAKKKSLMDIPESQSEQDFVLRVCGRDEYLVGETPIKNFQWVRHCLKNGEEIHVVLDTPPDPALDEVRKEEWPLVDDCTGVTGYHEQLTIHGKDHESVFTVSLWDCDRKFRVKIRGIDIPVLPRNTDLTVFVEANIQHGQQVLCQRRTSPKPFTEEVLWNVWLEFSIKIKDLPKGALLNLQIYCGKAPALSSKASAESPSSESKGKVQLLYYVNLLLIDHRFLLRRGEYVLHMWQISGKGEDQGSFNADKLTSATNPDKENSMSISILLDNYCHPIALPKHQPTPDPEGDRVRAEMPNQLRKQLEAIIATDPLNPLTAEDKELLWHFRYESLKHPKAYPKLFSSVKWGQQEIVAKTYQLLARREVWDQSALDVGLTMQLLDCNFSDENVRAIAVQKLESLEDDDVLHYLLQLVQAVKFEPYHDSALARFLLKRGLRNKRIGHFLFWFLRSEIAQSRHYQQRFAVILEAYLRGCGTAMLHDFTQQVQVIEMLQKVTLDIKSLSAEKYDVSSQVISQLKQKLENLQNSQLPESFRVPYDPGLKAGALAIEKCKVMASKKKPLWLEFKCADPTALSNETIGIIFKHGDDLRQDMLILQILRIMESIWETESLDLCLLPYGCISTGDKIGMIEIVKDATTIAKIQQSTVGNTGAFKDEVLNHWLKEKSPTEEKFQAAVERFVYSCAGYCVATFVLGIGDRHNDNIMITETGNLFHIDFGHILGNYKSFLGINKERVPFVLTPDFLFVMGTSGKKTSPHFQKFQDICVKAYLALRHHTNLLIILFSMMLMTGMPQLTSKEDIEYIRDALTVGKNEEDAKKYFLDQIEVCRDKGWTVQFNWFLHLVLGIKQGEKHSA
UniProt P42336, whole entry: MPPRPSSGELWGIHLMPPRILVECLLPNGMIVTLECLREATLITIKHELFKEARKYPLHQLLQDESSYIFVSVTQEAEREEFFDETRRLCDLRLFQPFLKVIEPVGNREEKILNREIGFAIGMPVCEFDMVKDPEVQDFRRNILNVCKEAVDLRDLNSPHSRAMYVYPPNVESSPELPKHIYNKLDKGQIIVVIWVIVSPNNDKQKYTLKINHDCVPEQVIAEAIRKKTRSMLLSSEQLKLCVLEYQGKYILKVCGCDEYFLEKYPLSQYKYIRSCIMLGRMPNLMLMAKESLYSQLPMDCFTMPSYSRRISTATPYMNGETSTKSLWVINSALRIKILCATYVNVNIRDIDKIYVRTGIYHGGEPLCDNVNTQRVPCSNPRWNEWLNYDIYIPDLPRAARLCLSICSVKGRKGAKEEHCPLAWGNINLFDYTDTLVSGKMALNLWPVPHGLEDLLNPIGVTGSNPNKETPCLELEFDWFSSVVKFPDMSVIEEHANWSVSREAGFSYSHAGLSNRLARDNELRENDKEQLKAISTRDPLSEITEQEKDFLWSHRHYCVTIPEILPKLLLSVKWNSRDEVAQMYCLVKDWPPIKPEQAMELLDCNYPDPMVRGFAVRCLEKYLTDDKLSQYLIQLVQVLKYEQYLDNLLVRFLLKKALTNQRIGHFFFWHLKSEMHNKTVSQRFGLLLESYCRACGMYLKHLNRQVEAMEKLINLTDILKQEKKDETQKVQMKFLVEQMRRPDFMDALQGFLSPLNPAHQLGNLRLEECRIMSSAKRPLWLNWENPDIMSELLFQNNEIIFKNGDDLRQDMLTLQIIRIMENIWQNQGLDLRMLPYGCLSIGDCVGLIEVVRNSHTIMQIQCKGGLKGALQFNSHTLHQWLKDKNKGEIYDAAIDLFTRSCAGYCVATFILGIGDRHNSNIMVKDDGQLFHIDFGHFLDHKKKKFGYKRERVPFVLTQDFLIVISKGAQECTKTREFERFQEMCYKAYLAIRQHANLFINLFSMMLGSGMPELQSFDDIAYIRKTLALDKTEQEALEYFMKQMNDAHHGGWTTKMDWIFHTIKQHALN

Columns and labels:
PIK3Cγ = PIK3Cγ (Homo sapiens, UniProt P48736); details: cited from earlier work
PIK3Cα/PIK3R1 = PIK3Cα/PIK3R1 (Homo sapiens, UniProt P42336); details: cited from earlier work
EGFR = EGFR (Homo sapiens, UniProt P00533); details: apparent, induced fit binding model; cited from earlier work

## C[C@H](Nc1ncnc2nc[nH]c12)c1cc2cccc(Cl)c2c(=O)n1-c1ccccc1 [Duvelisib]
PIK3Cγ
  ka: 1.63e+06 M⁻¹ s⁻¹
  kd: 0.000709 s⁻¹
  log(ka): 6.21
  log(kd): −3.15
PIK3Cα/PIK3R1
  ka: 1.66e+06 M⁻¹ s⁻¹
  kd: 0.053 s⁻¹
  log(ka): 6.22
  log(kd): −1.28

## C=CC(=O)N1CCC[C@@H](n2nc(-c3ccc(Oc4ccccc4)cc3)c3c(N)ncnc32)C1 [ibrutinib]
EGFR
  τ*: 14031 s
